# Structures can show the parent of a compound that is named as a salt. Some of the results follow. This data set is noisy: repeats of one test often differ as much as different tests do.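 Human fetal ventral-midbrain neural progenitor line ReNCell VM, differentiated without mitogens. Images stained for doublecortin (early neurons) or tyrosine hydroxylase (dopaminergic neurons) were scored by blinded raters against untreated wells (0 = no change). Repeats and both raters were averaged, and compounds averaging 2 or higher were picked as hits for retesting.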
# Legend:
# ReNCell VM [1] = experiment: neuronal differentiation score (DCX+ cell fraction vs untreated, manual image score) (score (-3 to 3)); higher = more neuronal differentiation; conditions: 2 uM, 2 weeks
# ReNCell VM [2] = experiment: dopaminergic neuron differentiation score (TH+ cell fraction vs untreated, manual image score) (score (0 to 3)); higher = more TH+ dopaminergic neuron differentiation; conditions: 2 uM, 4 weeks, BDNF 10 ng/ml + GDNF 10 ng/ml
structure (smiles),measurement,setting,value
CC(C)NCC(O)COc1cccc2[nH]ccc12 (stereo not drawn),neuronal differentiation score,ReNCell VM [1]; library: Spectrum,inactive: 0
same,dopaminergic neuron differentiation score,ReNCell VM [2]; library: Spectrum,inactive: 0
CCC(=O)c1ccc(O)cc1,neuronal differentiation score,ReNCell VM [1]; library: Spectrum,inactive: 0
same,dopaminergic neuron differentiation score,ReNCell VM [2]; library: Spectrum,inactive: 0
C/C=N/N(C)C=O,neuronal differentiation score,ReNCell VM [1]; library: Spectrum,inactive: 0
same,dopaminergic neuron differentiation score,ReNCell VM [2]; library: Spectrum,inactive: 0
Brc1ccc([C@H]2CN3CCSC3=N2)cc1 [S(-)-p-Bromotetramisole oxalate],neuronal differentiation score,ReNCell VM [1]; library: LOPAC,inactive: 0
same,dopaminergic neuron differentiation score,ReNCell VM [2]; library: LOPAC,inactive: 0
COc1ccc(NS(=O)(=O)c2ccc(N)cc2)nn1,neuronal differentiation score,ReNCell VM [1]; library: Spectrum,inactive: 0
same,dopaminergic neuron differentiation score,ReNCell VM [2]; library: Spectrum,inactive: 0
COc1cc(/C=C/C(=O)N2CCC=CC2=O)cc(OC)c1OC,neuronal differentiation score,ReNCell VM [1]; library: Spectrum,inactive: 0
same,dopaminergic neuron differentiation score,ReNCell VM [2]; library: Spectrum,inactive: 0
COc1cc(C(=O)N2CCOCC2)cc(OC)c1OC,neuronal differentiation score,ReNCell VM [1]; library: Spectrum,inactive: 0
same,dopaminergic neuron differentiation score,ReNCell VM [2]; library: Spectrum,inactive: 0
O=C1c2c(O)cccc2Cc2cccc(O)c21,neuronal differentiation score,ReNCell VM [1]; library: Spectrum,inactive: -1
same,dopaminergic neuron differentiation score,ReNCell VM [2]; library: Spectrum,inactive: 0
COC(=O)[C@H](c1ccccc1Cl)N1CCc2sccc2C1,neuronal differentiation score,ReNCell VM [1]; library: Spectrum,inactive: 0
same,dopaminergic neuron differentiation score,ReNCell VM [2]; library: Spectrum,inactive: 0
N=C(N)c1ccc(N)cc1 [4-Aminobenzamidine dihydrochloride],neuronal differentiation score,ReNCell VM [1]; library: LOPAC,inactive: 0
same,dopaminergic neuron differentiation score,ReNCell VM [2]; library: LOPAC,inactive: 0
"CC(C)NCC(O)c1ccc(O)c(O)c1 (single isomer, unassigned; (+)) [(+)-Isoproterenol (+)-bitartrate salt]",neuronal differentiation score,ReNCell VM [1]; library: Prestwick,inactive: 1
same,dopaminergic neuron differentiation score,ReNCell VM [2]; library: Prestwick,inactive: 1
NC1=NCCN1CC(=O)O,neuronal differentiation score,ReNCell VM [1]; library: Spectrum,inactive: 0
same,dopaminergic neuron differentiation score,ReNCell VM [2]; library: Spectrum,inactive: 0
COc1cc(OC)c2c(=O)c(-c3ccccc3)c(C)oc2c1OC,neuronal differentiation score,ReNCell VM [1]; library: Spectrum,inactive: 0
same,dopaminergic neuron differentiation score,ReNCell VM [2]; library: Spectrum,inactive: 0
C[C@]12C(=O)C=C(O)C=C1CC[C@H]1[C@@H]3C[C@@H](O)C(O)(C(=O)CO)[C@@]3(C)C[C@H](O)[C@@]12F (stereo partly drawn) [Triamcinolone alcohol],neuronal differentiation score,ReNCell VM [1]; library: Phytochemical,inactive: 0
same,dopaminergic neuron differentiation score,ReNCell VM [2]; library: Phytochemical,inactive: 0
CCCCC(=O)O[C@H]1CC[C@H]2[C@@H]3CCc4cc(O)ccc4[C@H]3CC[C@]12C,neuronal differentiation score,ReNCell VM [1]; library: Spectrum,inactive: 0
same,dopaminergic neuron differentiation score,ReNCell VM [2]; library: Spectrum,inactive: 0
COc1cc2nc(N(C)CCCNC(=O)C3CCCO3)nc(N)c2cc1OC (stereo not drawn) [Alfuzosin hydrochloride],neuronal differentiation score,ReNCell VM [1]; library: Prestwick,inactive: 0
same,dopaminergic neuron differentiation score,ReNCell VM [2]; library: Prestwick,inactive: 0
O=C(c1ccc(F)cc1)C1CCN(CCn2c(=O)[nH]c3ccccc3c2=O)CC1,neuronal differentiation score,ReNCell VM [1]; library: Spectrum,inactive: 0
same,dopaminergic neuron differentiation score,ReNCell VM [2]; library: Spectrum,inactive: 0
CCc1ccc(CCOc2ccc(CC3SC(=O)NC3=O)cc2)nc1 (stereo not drawn) [Pioglitazone],neuronal differentiation score,ReNCell VM [1]; library: Prestwick,inactive: 0
same,dopaminergic neuron differentiation score,ReNCell VM [2]; library: Prestwick,inactive: 0
Cc1ccc(/C(=C\CN2CCCC2)c2ccccn2)cc1,neuronal differentiation score,ReNCell VM [1]; library: Spectrum,inactive: 0
same,dopaminergic neuron differentiation score,ReNCell VM [2]; library: Spectrum,inactive: 0
c1ccc2[nH]c(-c3cscn3)nc2c1,neuronal differentiation score,ReNCell VM [1]; library: Spectrum,inactive: 0
same,dopaminergic neuron differentiation score,ReNCell VM [2]; library: Spectrum,inactive: 0
Cc1ncc([N+](=O)[O-])n1CC(O)CCl (stereo not drawn) [Ornidazole],neuronal differentiation score,ReNCell VM [1]; library: Prestwick,inactive: 0
same,dopaminergic neuron differentiation score,ReNCell VM [2]; library: Prestwick,inactive: 0
Nc1ncnc2c1ncn2[C@@H]1O[C@H](CO)C[C@H]1O [Cordycepin],neuronal differentiation score,ReNCell VM [1]; library: Tocriscreen,inactive: 0
same,dopaminergic neuron differentiation score,ReNCell VM [2]; library: Tocriscreen,inactive: 0
O=C(c1cc(O)c(O)c([N+](=O)[O-])c1)c1ccccc1F,neuronal differentiation score,ReNCell VM [1]; library: LOPAC,inactive: 0
same,dopaminergic neuron differentiation score,ReNCell VM [2]; library: LOPAC,inactive: 0
CCc1ccc(OCc2ccccc2C(=O)Nc2ccc3nc(C)cc(N)c3c2)cc1,neuronal differentiation score,ReNCell VM [1]; library: Tocriscreen,inactive: 0
same,dopaminergic neuron differentiation score,ReNCell VM [2]; library: Tocriscreen,inactive: 0
CNC[C@H](O)c1ccc(O)c(O)c1 [(-)-Epinephrine bitartrate],neuronal differentiation score,ReNCell VM [1]; library: LOPAC,inactive: 0
same,dopaminergic neuron differentiation score,ReNCell VM [2]; library: LOPAC,inactive: 0
O=c1cc(-c2ccccc2)oc2cc(O)cc(O)c12,neuronal differentiation score,ReNCell VM [1]; library: Spectrum,inactive: -1
same,dopaminergic neuron differentiation score,ReNCell VM [2]; library: Spectrum,inactive: 0
Cc1ncc([N+](=O)[O-])n1CC(C)O (stereo not drawn) [Secnidazole],neuronal differentiation score,ReNCell VM [1]; library: Prestwick,inactive: 0
same,dopaminergic neuron differentiation score,ReNCell VM [2]; library: Prestwick,inactive: 1
Cc1c[nH]c(=O)n(CCCN2CCN(c3ccccc3OCC(F)(F)F)CC2)c1=O,neuronal differentiation score,ReNCell VM [1]; library: Tocriscreen,inactive: 0
same,dopaminergic neuron differentiation score,ReNCell VM [2]; library: Tocriscreen,inactive: 0
COc1c(O[C@@H]2O[C@H](CO)[C@@H](O)[C@H](O)[C@H]2O)cc2c(c1OC)-c1ccc(OC)c(=O)cc1[C@@H](NC(C)=O)CC2 [Colchicoside],neuronal differentiation score,ReNCell VM [1]; library: Phytochemical,inactive: 0
same,dopaminergic neuron differentiation score,ReNCell VM [2]; library: Phytochemical,inactive: 0
C=C[C@H]1CN2CC[C@H]1C[C@H]2[C@H](O)c1ccnc2ccc(OC)cc12 [Quinine sulfate],neuronal differentiation score,ReNCell VM [1]; library: LOPAC,inactive: 0
same,dopaminergic neuron differentiation score,ReNCell VM [2]; library: LOPAC,inactive: 0
CC1=C(/C=C/C(C)=C/C=C/C(C)=C/C(=O)O)C(C)(C)CCC1,neuronal differentiation score,ReNCell VM [1]; library: Spectrum,inactive: -1
same,dopaminergic neuron differentiation score,ReNCell VM [2]; library: Spectrum,inactive: 0
"CC(O)(P(=O)(O)O)P(=O)(O)O [Etidronic acid, disodium salt]",neuronal differentiation score,ReNCell VM [1]; library: Prestwick,inactive: 0
same,dopaminergic neuron differentiation score,ReNCell VM [2]; library: Prestwick,inactive: 0
NC(=S)c1ccc[n+]([C@@H]2O[C@@H](COP(=O)([O-])OP(=O)(O)OC[C@H]3O[C@@H](n4cnc5c(N)ncnc54)C(OP(=O)(O)O)[C@H]3O)C(O)C2O)c1 (stereo partly drawn) [Thio-NADP sodium],neuronal differentiation score,ReNCell VM [1]; library: LOPAC,inactive: 0
same,dopaminergic neuron differentiation score,ReNCell VM [2]; library: LOPAC,inactive: 0
O=C(O)CN(CCOCCOCCN(CC(=O)O)CC(=O)O)CC(=O)O,neuronal differentiation score,ReNCell VM [1]; library: LOPAC,inactive: 1
same,dopaminergic neuron differentiation score,ReNCell VM [2]; library: LOPAC,inactive: 0

# Part of the list above in a different format:
structure (smiles) | measurement | setting | value
COC(=O)[C@H](c1ccccc1Cl)N1CCc2sccc2C1 | neuronal differentiation score | ReNCell VM [1]; library: Spectrum | inactive: 0
same | dopaminergic neuron differentiation score | ReNCell VM [2]; library: Spectrum | inactive: 0
N=C(N)c1ccc(N)cc1 [4-Aminobenzamidine dihydrochloride] | neuronal differentiation score | ReNCell VM [1]; library: LOPAC | inactive: 0
same | dopaminergic neuron differentiation score | ReNCell VM [2]; library: LOPAC | inactive: 0
CC(C)NCC(O)c1ccc(O)c(O)c1 (single isomer, unassigned; (+)) [(+)-Isoproterenol (+)-bitartrate salt] | neuronal differentiation score | ReNCell VM [1]; library: Prestwick | inactive: 1

# From the supplement of paper PMC4635364
